Data on one compound can be found in patent US20250134906A1 (Woolsey Pharmaceuticals, Inc., priority 2022, published 2025).

Each structure is given as a SMILES string. Counter-ions that a name gives are not always drawn.

A short description of this data set: Taste threshold concentration for fasudil. It counts as in vivo, human. The following applies: for Palatability: scale of 1-10, 10 best; for Palatability / After Taste / Bitterness: second taste-tester; for After Taste / Bitterness: scale of 1-10, 10 worst; for taste threshold concentration: for most people.

`O=S(=O)(c1cccc2cnccc12)N1CCCNCC1` [Fasudil, hexahydro-1-(5-isoquinolinesulfonyl)-1H-1,4-diazepine monohydrochloride hemihydrate] yielded a taste threshold concentration of 0.3 to 0.4 mg/mL. Besides, for the setting “0.1 mg/mL”, the Palatability is listed as 5, the “After Taste” value is given as 1 and the Bitterness is listed as 1. In addition, for the setting “0.5 mg/mL”, the Palatability is on record as 2, the “After Taste” value worked out at 5 and the Bitterness was found to be 7. Also, the taste threshold concentration (super and normal tasters) lay in the range of 0.1 to 0.4 mg/mL.
